{
  "source": "patent US20110224159A1",
  "about": "“BIDESMOSIDIC BETULIN AND BETULINIC ACID DERIVATIVES AND USES THEREOF AS ANTITUMOR AGENTS” (Universite du Quebec a Chicoutime, priority 2008, published 2011)",
  "test_system": "tested cancer cell lines (A549, DLD-1, MCF7, PC-3)",
  "assay": "Cytotoxicity assay (resazurin reduction, 48 h), summary over the tested cancer cell lines",
  "assay_type": "cell-based, human",
  "settings": "range or bound over the cell lines; read-out: IC50 against the tested cancer cell lines",
  "method": "Human lung carcinoma (A549, ATCC # CCL-185™), human colorectal adenocarcinoma (DLD-1, ATCC # CCL-221™), human breast adenocarcinoma (MCF7, ATCC # HTB-22™), human prostate adenocarcinoma (PC-3, ATCC # CCL-1435™) and human normal skin fibroblasts (WS1, ATCC # CRL-1502™) cell lines were obtained from the American Type Culture Collection (ATCC). All cell lines were cultured in minimum essential medium containing Earle's salts and L-glutamine (Mediatech Cellgro, VA), to which were added 10% fetal bovine serum (Hyclone), vitamins (1×), penicillin (100 IU/mL) and streptomycin (100 μg/mL), essential amino acids (1×), and sodium pyruvate (1×) (Mediatech Cellgro, VA). […]\nExponentially growing cells were plated in 96-well microplates (Costar, Corning Inc.) at a density of 5×10^3 cells per well in 100 μL of culture medium and were allowed to adhere for 16 h before treatment. […] Cytotoxicity was assessed using resazurin (O'Brien, J. et al., 2000. Eur J Biochem 267(17): 5421-6) on an automated 96-well Fluoroskan Ascent F1™ plate reader (Labsystems) using excitation and emission wavelengths of 530 and 590 nm, respectively. Fluorescence was proportional to the cellular metabolic activity in each well. Survival percentage was defined as the fluorescence in experimental wells compared to that in control wells after subtraction of blank values. […] IC50 results are expressed as mean±standard deviation. […]",
  "note": "Some entries share one result that the patent states for a list of compounds. At least one structure is not confirmed: it was looked up by name or label, or the drawing left a doubt.",
  "data": [
    {"smiles": "C=C(C)[C@@H]1CC[C@]2(C(=O)O[C@@H]3O[C@H](CO)[C@@H](O)[C@H](O)[C@H]3O)CC[C@]3(C)[C@H](CC[C@@H]4[C@@]5(C)CC[C@H](O[C@@H]6O[C@@H](C)[C@H](O)[C@@H](O)[C@H]6O)C(C)(C)[C@@H]5CC[C@]43C)[C@@H]12", "note": "[Compound 19, 28-O-β-D-Glucopyranosyl betulinic acid 3β-O-α-L-rhamnopyranoside]", "values": [
      {"measurement": "IC50", "result": "1.7 to 23", "unit": "µM"}
    ]}
  ]
}
